Values quoted from earlier work in patent US20050025705A1, “Thrombosis animal models and their use in drug discovery and development” (priority 2003, published 2005).
Where two headings read alike, the source gives them in different places. Some of these results come from one statement about several compounds together.

Conditions: cited from earlier work

Question: For heparin, which “patients with uncontrolled bleeding” value (continuous infusion) is on record?
Answer: 1-7%

Question: What about the “patients with uncontrolled bleeding” value (intermittent bolus doses) of the same substance?
Answer: 8-14%

Question: With “low molecular weight (LMW) heparin [LMW heparin]” as the substance, how does the “patients with uncontrolled bleeding” value (continuous infusion) read?
Answer: 1-7%

Question: What about the “patients with uncontrolled bleeding” value (intermittent bolus doses) of the same substance?
Answer: 8-14%
